The other results are listed elsewhere or left out.
Experiments:
Assay in all cases: log2 fold change, soluble protein after heating vs DMSO (PISA); higher = thermal stabilisation; K562 cells, 10 uM, 30 min; active = over 0.2 and 3.5 SD of the protein, either way, in both replicates (recomputed)
[1] = compound: CC1=C(C=C(C=C1)NC(=O)C2=CC(=CC=C2)C(C)(C)C#N)NC3=CC4=C(C=C3)N=CN(C4=O)C
How it was run: (§1)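 Soluble protein was defined as the supernatant after 21,000xg for 90 min. It came from K562 cells at 2×10^6 cells/mL given 10 μM compound for 30 min, heated in aliquots for 3 min across 48°C-58°C, pooled, and extracted in PBS with 0.5% NP-40 at 4°C, and was quantified by TMTpro 16plex LC-MS/MS with equalised channel sums. Thermal stability against control samples, from duplicates, is reported as log2 fold change.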

Amino acid sequences for entries named in this document (tags omitted). A change or cut given only in a name is not applied to a line headed by its entry.
UniProt P09543: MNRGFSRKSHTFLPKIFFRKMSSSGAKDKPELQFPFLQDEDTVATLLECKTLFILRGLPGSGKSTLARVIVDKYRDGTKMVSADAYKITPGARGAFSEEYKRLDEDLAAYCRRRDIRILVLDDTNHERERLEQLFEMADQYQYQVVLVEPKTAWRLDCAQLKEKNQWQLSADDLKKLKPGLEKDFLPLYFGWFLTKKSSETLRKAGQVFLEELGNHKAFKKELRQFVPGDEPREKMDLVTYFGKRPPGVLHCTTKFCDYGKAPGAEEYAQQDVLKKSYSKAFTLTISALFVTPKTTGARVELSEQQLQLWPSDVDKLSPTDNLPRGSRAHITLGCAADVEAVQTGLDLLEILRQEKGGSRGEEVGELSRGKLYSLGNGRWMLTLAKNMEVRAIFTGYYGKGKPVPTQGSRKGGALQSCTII
UniProt Q9BQ75: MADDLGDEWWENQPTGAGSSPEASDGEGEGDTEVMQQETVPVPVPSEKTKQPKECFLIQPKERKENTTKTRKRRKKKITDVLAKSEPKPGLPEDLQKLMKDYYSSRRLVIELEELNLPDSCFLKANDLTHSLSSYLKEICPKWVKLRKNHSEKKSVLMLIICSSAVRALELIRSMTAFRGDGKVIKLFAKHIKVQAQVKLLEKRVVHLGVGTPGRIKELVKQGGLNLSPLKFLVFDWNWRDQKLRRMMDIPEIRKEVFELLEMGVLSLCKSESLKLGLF
UniProt P06732: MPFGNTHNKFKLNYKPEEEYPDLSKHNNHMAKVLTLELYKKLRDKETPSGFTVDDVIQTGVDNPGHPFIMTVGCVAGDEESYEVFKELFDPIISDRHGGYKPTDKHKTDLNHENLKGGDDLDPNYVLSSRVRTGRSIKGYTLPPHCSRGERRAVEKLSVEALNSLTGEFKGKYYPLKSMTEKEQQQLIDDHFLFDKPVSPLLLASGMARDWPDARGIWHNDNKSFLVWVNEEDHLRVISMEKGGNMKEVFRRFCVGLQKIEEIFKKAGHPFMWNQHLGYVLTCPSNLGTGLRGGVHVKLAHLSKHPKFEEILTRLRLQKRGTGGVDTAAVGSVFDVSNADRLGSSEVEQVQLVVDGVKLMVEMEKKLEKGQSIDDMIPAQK
UniProt Q9NZ45: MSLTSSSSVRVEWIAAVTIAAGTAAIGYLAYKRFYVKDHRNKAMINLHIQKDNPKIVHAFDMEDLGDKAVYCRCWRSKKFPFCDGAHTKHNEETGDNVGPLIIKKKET
UniProt Q9H6Q4: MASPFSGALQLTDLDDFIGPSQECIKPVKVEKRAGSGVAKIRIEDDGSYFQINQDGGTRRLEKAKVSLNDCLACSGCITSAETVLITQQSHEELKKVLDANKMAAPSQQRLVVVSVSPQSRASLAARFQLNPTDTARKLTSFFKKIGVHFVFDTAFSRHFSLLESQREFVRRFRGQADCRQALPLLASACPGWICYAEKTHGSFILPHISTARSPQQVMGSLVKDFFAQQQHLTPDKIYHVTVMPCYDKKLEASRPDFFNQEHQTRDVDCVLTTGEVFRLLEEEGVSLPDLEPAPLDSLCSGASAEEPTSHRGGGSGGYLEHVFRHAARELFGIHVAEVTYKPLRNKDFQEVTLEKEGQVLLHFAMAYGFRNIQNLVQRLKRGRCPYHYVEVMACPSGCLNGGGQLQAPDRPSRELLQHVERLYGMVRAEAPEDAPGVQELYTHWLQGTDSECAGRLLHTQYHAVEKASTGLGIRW
UniProt Q8NE01: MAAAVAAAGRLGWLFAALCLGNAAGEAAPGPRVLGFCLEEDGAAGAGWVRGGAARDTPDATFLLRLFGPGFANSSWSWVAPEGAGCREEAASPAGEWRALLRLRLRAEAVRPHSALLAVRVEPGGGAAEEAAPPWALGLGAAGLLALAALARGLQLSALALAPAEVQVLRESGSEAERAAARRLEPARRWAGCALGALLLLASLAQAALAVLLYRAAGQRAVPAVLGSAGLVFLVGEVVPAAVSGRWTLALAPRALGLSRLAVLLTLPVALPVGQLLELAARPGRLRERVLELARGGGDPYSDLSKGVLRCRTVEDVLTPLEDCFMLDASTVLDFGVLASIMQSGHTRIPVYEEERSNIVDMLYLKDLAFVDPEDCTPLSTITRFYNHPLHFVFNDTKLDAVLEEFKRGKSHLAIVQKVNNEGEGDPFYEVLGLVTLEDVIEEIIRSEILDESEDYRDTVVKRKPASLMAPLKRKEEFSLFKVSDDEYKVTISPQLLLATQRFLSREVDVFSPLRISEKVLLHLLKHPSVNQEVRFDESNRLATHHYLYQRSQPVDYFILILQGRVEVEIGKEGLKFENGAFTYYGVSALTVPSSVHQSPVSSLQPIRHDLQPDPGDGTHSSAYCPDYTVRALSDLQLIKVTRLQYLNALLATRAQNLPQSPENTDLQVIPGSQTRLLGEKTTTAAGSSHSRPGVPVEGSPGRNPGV
UniProt P0C7P0: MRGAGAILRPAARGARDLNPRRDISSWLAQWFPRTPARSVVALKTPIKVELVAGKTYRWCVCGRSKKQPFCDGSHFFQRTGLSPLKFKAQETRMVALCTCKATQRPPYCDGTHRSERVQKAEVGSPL
UniProt P09496: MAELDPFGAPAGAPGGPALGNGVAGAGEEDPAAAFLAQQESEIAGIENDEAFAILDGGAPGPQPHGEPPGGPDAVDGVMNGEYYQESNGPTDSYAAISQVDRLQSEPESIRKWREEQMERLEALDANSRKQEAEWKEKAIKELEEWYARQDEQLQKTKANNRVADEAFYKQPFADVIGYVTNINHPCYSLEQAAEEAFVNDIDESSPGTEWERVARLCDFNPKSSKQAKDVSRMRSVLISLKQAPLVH
UniProt Q7Z460: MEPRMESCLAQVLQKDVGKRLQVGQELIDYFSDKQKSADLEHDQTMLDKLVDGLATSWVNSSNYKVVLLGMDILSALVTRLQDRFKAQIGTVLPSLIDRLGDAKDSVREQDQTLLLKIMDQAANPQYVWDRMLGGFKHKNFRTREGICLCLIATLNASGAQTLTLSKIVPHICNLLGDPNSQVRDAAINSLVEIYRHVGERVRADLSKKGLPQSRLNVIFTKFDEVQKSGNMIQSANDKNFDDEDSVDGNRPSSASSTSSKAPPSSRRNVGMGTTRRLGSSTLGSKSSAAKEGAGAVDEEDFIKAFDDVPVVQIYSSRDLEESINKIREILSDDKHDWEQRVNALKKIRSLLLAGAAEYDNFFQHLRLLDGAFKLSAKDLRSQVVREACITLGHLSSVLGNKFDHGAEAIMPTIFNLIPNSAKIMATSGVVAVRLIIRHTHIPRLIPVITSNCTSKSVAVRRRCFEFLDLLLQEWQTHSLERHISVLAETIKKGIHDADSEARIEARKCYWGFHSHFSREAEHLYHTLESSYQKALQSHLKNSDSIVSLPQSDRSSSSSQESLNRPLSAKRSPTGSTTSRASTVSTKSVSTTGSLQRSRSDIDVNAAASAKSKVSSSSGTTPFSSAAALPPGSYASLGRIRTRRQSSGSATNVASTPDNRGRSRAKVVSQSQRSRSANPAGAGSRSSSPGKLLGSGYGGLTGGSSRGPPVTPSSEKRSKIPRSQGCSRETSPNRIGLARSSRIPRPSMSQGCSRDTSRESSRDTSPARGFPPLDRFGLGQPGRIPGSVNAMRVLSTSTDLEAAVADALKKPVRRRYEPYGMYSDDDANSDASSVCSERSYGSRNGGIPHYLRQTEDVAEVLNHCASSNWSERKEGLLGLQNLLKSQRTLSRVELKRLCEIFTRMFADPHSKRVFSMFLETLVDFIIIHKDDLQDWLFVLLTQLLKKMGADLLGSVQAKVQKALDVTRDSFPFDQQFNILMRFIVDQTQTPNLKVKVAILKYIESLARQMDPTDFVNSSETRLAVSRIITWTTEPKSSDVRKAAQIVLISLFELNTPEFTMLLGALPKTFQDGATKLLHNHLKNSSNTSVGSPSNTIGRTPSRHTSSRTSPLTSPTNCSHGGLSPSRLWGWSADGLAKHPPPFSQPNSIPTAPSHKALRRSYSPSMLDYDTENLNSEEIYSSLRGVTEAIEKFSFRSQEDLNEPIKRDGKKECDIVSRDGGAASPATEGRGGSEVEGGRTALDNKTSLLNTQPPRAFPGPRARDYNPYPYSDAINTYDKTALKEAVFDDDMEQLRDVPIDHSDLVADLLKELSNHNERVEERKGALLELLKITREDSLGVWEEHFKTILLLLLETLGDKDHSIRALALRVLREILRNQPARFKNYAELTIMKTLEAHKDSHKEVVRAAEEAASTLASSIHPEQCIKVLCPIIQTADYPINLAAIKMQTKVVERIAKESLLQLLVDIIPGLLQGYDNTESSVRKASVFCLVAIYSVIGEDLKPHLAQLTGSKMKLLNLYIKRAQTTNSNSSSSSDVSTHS
UniProt Q9Y696: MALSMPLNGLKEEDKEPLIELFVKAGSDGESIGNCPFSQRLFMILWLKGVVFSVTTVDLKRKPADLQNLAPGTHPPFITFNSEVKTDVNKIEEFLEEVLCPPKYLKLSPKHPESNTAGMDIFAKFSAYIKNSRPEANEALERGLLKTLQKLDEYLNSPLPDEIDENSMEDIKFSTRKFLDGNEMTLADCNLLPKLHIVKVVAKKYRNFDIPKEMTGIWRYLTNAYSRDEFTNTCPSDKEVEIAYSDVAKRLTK
UniProt O15247: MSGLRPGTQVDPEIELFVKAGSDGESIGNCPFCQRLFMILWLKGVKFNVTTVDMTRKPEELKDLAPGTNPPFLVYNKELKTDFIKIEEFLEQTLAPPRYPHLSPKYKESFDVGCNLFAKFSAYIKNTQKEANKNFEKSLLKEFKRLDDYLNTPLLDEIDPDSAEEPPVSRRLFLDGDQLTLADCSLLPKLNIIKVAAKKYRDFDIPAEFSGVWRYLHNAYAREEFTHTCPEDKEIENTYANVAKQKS
UniProt Q8NFW8: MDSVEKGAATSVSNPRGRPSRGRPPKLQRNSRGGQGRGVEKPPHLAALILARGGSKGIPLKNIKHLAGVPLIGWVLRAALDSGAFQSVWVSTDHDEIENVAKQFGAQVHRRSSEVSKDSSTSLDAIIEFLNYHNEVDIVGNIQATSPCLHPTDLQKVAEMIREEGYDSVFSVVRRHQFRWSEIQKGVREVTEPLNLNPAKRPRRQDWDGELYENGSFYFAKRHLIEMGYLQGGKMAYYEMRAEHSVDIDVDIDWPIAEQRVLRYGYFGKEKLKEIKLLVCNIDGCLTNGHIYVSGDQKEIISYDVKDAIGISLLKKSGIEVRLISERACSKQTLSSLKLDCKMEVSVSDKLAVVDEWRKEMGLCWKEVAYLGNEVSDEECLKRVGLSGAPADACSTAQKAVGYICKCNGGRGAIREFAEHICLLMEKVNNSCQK
UniProt Q9Y2R0: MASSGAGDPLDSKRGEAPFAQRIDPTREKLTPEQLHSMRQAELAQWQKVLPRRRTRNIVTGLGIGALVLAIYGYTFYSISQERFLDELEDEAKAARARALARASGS
UniProt Q8WUH1: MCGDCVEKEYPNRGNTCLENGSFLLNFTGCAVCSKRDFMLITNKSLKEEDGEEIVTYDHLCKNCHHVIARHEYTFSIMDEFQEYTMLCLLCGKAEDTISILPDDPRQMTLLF
UniProt Q9BT09: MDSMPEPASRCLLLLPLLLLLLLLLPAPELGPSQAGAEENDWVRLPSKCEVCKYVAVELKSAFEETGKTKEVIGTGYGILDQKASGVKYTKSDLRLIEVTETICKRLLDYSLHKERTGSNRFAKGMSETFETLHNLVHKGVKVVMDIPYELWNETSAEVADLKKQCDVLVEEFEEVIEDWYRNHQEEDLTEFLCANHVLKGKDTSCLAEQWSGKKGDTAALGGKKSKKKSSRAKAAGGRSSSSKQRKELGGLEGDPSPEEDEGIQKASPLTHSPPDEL
UniProt Q9Y2B0: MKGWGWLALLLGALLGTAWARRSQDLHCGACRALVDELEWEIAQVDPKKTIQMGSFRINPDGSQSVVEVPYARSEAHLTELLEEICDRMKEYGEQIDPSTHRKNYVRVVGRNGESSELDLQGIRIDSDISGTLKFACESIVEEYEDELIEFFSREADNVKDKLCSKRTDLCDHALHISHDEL

[2] = compound: CC1=C(C=C(C=C1)NC(=O)C2=CC(=CC=C2)N(C)C)NC(=O)C3=CC=C(C=C3)O
How it was run: as §1

[3] = compound: CC1=CC=C(C=C1)SC2=C3C=C(SC3=CN=C2)C(=O)N
How it was run: as §1

[4] = compound: CC1=NC(=CC=C1)C2=C(N=C(N2)C(C)(C)C)C3=CC4=NC=CN=C4C=C3
How it was run: as §1

Nexturastat A = compound: CCCCN(Cc1ccc(C(=O)NO)cc1)C(=O)Nc1ccccc1 [Nexturastat A]
How it was run: as §1

vemurafenib = compound: CCCS(=O)(=O)Nc1ccc(F)c(C(=O)c2c[nH]c3ncc(-c4ccc(Cl)cc4)cc23)c1F [vemurafenib]
How it was run: as §1

[5] = compound: CCCS(=O)(=O)Nc1ccc(F)c(C(=O)c2c[nH]c3ncc(Cl)cc23)c1F
How it was run: as §1

[6] = compound: CCCc1cc(C)[nH]c(=O)c1CNC(=O)c1cc(-c2ccnc(N3CCN(C)CC3)c2)cc2c1cnn2C(C)C
How it was run: as §1

givinostat = compound: CCN(CC)Cc1ccc2cc(COC(=O)Nc3ccc(C(=O)NO)cc3)ccc2c1 [givinostat]
How it was run: as §1

barasertib = compound: CCN(CCCOc1ccc2c(Nc3cc(CC(=O)Nc4cccc(F)c4)[nH]n3)ncnc2c1)CCOP(=O)(O)O [barasertib]
How it was run: as §1

[7] = compound: CC[C@@H]1C(=O)N(C)c2cnc(Nc3ccc(C(=O)NC4CCN(C)CC4)cc3OC)nc2N1C1CCCC1
How it was run: as §1

volasertib = compound: CC[C@@H]1C(=O)N(C)c2cnc(Nc3ccc(C(=O)N[C@H]4CC[C@H](N5CCN(CC6CC6)CC5)CC4)cc3OC)nc2N1C(C)C [volasertib]
How it was run: as §1

[8] = compound: CC[C@H](C)N1C=C(C2=C(C=C(C=C21)C3=CN=C(C=C3)N4CCNCC4)C(=O)NCC5=C(C=C(NC5=O)C)C)C
How it was run: as §1

epoxomicin = compound: CC[C@H](C)[C@@H](C(=O)N[C@@H]([C@@H](C)O)C(=O)N[C@@H](CC(C)C)C(=O)[C@]1(CO1)C)NC(=O)[C@H]([C@@H](C)CC)N(C)C(=O)C [epoxomicin]
How it was run: as §1

[9] = compound: CCn1c(C(=O)N(C2CC2)C2CC2)cc2c3c(ncn3C)c(Nc3cc(C)n(C)n3)nc21
How it was run: as §1

[10] = compound: CCn1cc(-c2ccnc3[nH]c(-c4cccc(CN(C)C)c4)cc23)c(-c2ccc(NC(=O)N(C)C)cc2)n1
How it was run: as §1

[11] = compound: CN(C)CC(=O)Nc1ccc2[nH]c(=O)c3ccccc3c2c1
How it was run: as §1

rosiglitazone = compound: CN(CCOC1=CC=C(C=C1)C[C@H]2C(=O)NC(=O)S2)C3=CC=CC=N3 (racemic) [rosiglitazone]
How it was run: as §1

[12] = compound: CN1C2=C(C3=C1C(=O)N(N=C3)CC4=CC(=CC=C4)N)SC(=C2)S(=O)C
How it was run: as §1

[13] = compound: CN1CCC(CNc2ccc3ncc(-c4cccc(OC(F)(F)F)c4)n3n2)CC1
How it was run: as §1

Measured: log2 fold change

CNP (UniProt P09543)
inactive: [1] -0.05 | [2] -0.029 | [3] -0.01 | [4] 0.018 | Nexturastat A -0.08 | vemurafenib 0.013 | [5] 0.006 | [6] -0.042 | givinostat -0.027 | barasertib 0.002 | [7] -0.046 | volasertib -0.126 | [8] -0.008 | epoxomicin 0.024 | [9] -0.023 | [10] -0.085 | [11] 0.002 | rosiglitazone 0.037 | [12] -0.041 | [13] 0

CMSS1 (UniProt Q9BQ75)
inactive: [1] -0.027 | [2] -0.069 | [3] -0.011 | [4] 0.027 | Nexturastat A 0.038 | vemurafenib -0.021 | [5] -0.025 | [6] 0.045 | givinostat -0.009 | barasertib 0.08 | [7] 0.158 | volasertib -0.137 | [8] -0.023 | epoxomicin -0.116 | [9] -0.099 | [10] 0.111 | [11] 0 | rosiglitazone -0.054 | [12] 0.032 | [13] 0.056

CKM (UniProt P06732)
inactive: [1] 0.075 | [2] -0.068 | [3] -0.031 | [4] 0.132 | Nexturastat A -0.03 | vemurafenib 0.069 | [5] 0.007 | [6] -0.227 | givinostat 0.034 | barasertib -0.068 | [7] -0.004 | volasertib 0.164 | [8] -0.004 | epoxomicin 0.035 | [9] -0.029 | [10] -0.195 | [11] 0.013 | rosiglitazone 0.042 | [12] -0.049 | [13] -0.004

CISD1 (UniProt Q9NZ45)
inactive: [1] 0.006 | [2] -0.006 | [3] -0.009 | [4] 0.007 | Nexturastat A -0.01 | vemurafenib -0.017 | [5] -0.043 | [6] -0.01 | givinostat -0.252 | barasertib -0.021 | [7] 0.01 | volasertib 0.067 | [8] -0.01 | epoxomicin 0.006 | [9] -0.051 | [10] 0.002 | [11] -0.009 | rosiglitazone -0.008 | [12] -0.031 | [13] -0.017

CIAO3 (UniProt Q9H6Q4)
inactive: [1] -0.023 | [2] -0.028 | [3] 0.054 | [4] 0.037 | Nexturastat A -0.005 | vemurafenib 0.085 | [5] 0.035 | [6] 0.008 | givinostat 0.003 | barasertib 0.001 | [7] 0.028 | volasertib -0.133 | [8] 0.007 | epoxomicin -0.038 | [9] -0.004 | [10] -0.018 | [11] 0.027 | rosiglitazone 0.018 | [12] -0.081 | [13] -0.021

CNNM3 (UniProt Q8NE01)
inactive: [1] -0.028 | [2] 0.007 | [3] 0.042 | [4] 0.058 | Nexturastat A -0.006 | vemurafenib -0.014 | [5] 0.078 | [6] 0.057 | givinostat 0.004 | barasertib 0.022 | [7] 0.04 | volasertib -0.063 | [8] -0.018 | epoxomicin -0.016 | [9] -0.025 | [10] 0.04 | [11] -0.02 | rosiglitazone -0.007 | [12] 0.021 | [13] 0.061

CISD3 (UniProt P0C7P0)
inactive: [1] 0.023 | [2] -0.1 | [3] -0.007 | [4] -0.037 | Nexturastat A -0.003 | vemurafenib -0.039 | [5] 0.057 | [6] 0.016 | givinostat -0.005 | barasertib 0.073 | [7] -0.016 | volasertib -0.007 | [8] -0.049 | epoxomicin 0.043 | [9] 0.094 | [10] -0.106 | [11] -0.027 | rosiglitazone 0.087 | [12] -0.069 | [13] -0.151

CLTA isoform 2 (UniProt P09496)
inactive: [1] 0.001 | [2] 0.005 | [3] -0.02 | [4] -0.047 | Nexturastat A -0.001 | vemurafenib -0.108 | [5] -0.014 | [6] 0.08 | givinostat -0.01 | barasertib -0.079 | [7] 0.148 | volasertib 0.242 | [8] -0.158 | epoxomicin 0.222 | [9] 0.093 | [10] 0.044 | [11] -0.097 | rosiglitazone -0.046 | [12] -0.036 | [13] 0.08

CLASP1 (UniProt Q7Z460)
inactive: [1] 0.003 | [2] -0.01 | [3] 0.01 | [4] 0.031 | Nexturastat A 0.129 | vemurafenib 0.052 | [5] 0.1 | [6] 0.026 | givinostat 0.08 | barasertib 0.08 | [7] -0.13 | volasertib -0.359 | [8] 0.114 | epoxomicin 0.059 | [9] -0.055 | [10] 0.015 | [11] 0.032 | rosiglitazone 0.026 | [12] 0.091 | [13] -0.238

CLIC4 (UniProt Q9Y696)
inactive: [1] -0.012 | [2] -0.034 | [3] -0.01 | [4] 0.014 | Nexturastat A -0.05 | vemurafenib -0.01 | [5] -0.001 | [6] -0.076 | givinostat 0.012 | barasertib 0.02 | [7] -0.043 | volasertib -0.038 | [8] 0.023 | epoxomicin 0.046 | [9] -0.006 | [10] 0.008 | [11] -0.002 | rosiglitazone 0.015 | [12] -0.044 | [13] -0.019

Quoted at random: two records from the list
CISD3 (UniProt P0C7P0)
inactive: [1] 0.023 | [2] -0.1 | [3] -0.007 | [4] -0.037 | Nexturastat A -0.003 | vemurafenib -0.039 | [5] 0.057 | [6] 0.016 | givinostat -0.005 | barasertib 0.073 | [7] -0.016 | volasertib -0.007 | [8] -0.049 | epoxomicin 0.043 | [9] 0.094 | [10] -0.106 | [11] -0.027 | rosiglitazone 0.087 | [12] -0.069 | [13] -0.151

CNNM3 (UniProt Q8NE01)
inactive: [1] -0.028 | [2] 0.007 | [3] 0.042 | [4] 0.058 | Nexturastat A -0.006 | vemurafenib -0.014 | [5] 0.078 | [6] 0.057 | givinostat 0.004 | barasertib 0.022 | [7] 0.04 | volasertib -0.063 | [8] -0.018 | epoxomicin -0.016 | [9] -0.025 | [10] 0.04 | [11] -0.02 | rosiglitazone -0.007 | [12] 0.021 | [13] 0.061

The listing continues.

CLIC2 (UniProt O15247)
inactive: [1] 0.053 | [2] -0.07 | [3] 0.056 | [4] 0.011 | Nexturastat A -0.036 | vemurafenib 0.057 | [5] 0.116 | [6] 0.014 | givinostat 0.013 | barasertib 0.042 | [7] -0.115 | volasertib -0.224 | [8] 0.04 | epoxomicin 0.037 | [9] -0.069 | [10] 0.008 | [11] 0.069 | rosiglitazone 0.046 | [12] -0.041 | [13] -0.101

CMAS (UniProt Q8NFW8)
inactive: [1] -0.004 | [2] -0.04 | [3] -0.056 | [4] -0.054 | Nexturastat A 0.138 | vemurafenib -0.016 | [5] -0.013 | [6] 0.093 | givinostat 0.019 | barasertib -0.092 | [7] 0.098 | volasertib 0.037 | [8] -0.048 | epoxomicin -0.085 | [9] -0.016 | [10] 0.099 | [11] -0.018 | rosiglitazone -0.052 | [12] 0.125 | [13] 0.05

COA3 (UniProt Q9Y2R0)
inactive: [1] -0.023 | [2] -0.041 | [3] 0.008 | [4] -0.008 | Nexturastat A -0.038 | vemurafenib 0.055 | [5] 0.006 | [6] -0.001 | givinostat -0.03 | barasertib 0.013 | [7] 0.031 | volasertib 0.085 | [8] -0.074 | epoxomicin -0.041 | [9] 0.029 | [10] -0.016 | [11] -0.004 | rosiglitazone -0.023 | [12] -0.02 | [13] 0

CHURC1 isoform 2 (UniProt Q8WUH1)
inactive: [1] 0.052 | [2] 0.025 | [3] 0.018 | [4] -0.032 | Nexturastat A 0.023 | vemurafenib 0.011 | [5] 0.012 | [6] -0.063 | givinostat 0.027 | barasertib 0.004 | [7] -0.02 | volasertib -0.175 | [8] 0.026 | epoxomicin 0.029 | [9] -0.014 | [10] -0.057 | [11] 0.007 | rosiglitazone 0.039 | [12] -0.09 | [13] -0.159

CNPY3 (UniProt Q9BT09)
inactive: [1] 0.006 | [2] 0.02 | [3] 0 | [4] 0.022 | Nexturastat A -0.012 | vemurafenib -0.052 | [5] -0.004 | [6] -0.028 | givinostat -0.029 | barasertib -0.005 | [7] 0.035 | volasertib 0.055 | [8] -0.026 | epoxomicin -0.022 | [9] -0.019 | [10] 0.011 | [11] 0.013 | rosiglitazone -0.021 | [12] -0.018 | [13] -0.016

CNPY2 (UniProt Q9Y2B0)
inactive: [1] -0.013 | [2] -0.032 | [3] -0.065 | [4] -0.023 | Nexturastat A -0.023 | vemurafenib -0.018 | [5] -0.02 | [6] -0.017 | givinostat -0.019 | barasertib 0 | [7] -0.032 | volasertib -0.027 | [8] -0.044 | epoxomicin -0.003 | [9] 0.027 | [10] 0.001 | [11] -0.055 | rosiglitazone 0.003 | [12] -0.014 | [13] 0.058
